Reference: PubChem BioAssay AID1159584 (Peter MacCallum Cancer Centre, 2016)

Purpose: 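Genes that CDH1-null MCF10A cells selectively depend on to survive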 (primary screen)
Cells: human MCF10A breast epithelial cells, parental and CDH1-null
Reagents: siRNA against human genes
Measured: 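Cell viability by CellTiter-Glo ATP luminescence, each line scaled to the mean of mock wells across plates, then CDH1-null over parental ratio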
Direction: CDH1-null / parental viability ratio: higher = CDH1-null cells survive relatively better than parental; CDH1-null viability vs mock: higher = more viable CDH1-null cells; parental viability vs mock: higher = more viable parental cells
The whole screen tested about 18,000 reagents; below is an unselected part. The record does not give: the amount of reagent, the time to read-out.

gene	PubChem SID	CDH1-null / parental viability ratio	CDH1-null viability vs mock (fraction of mock)	parental viability vs mock (fraction of mock)
C1orf162 (chromosome 1 open reading frame 162)	SID152149452	0.74	0.64	0.87
XTBD1 (XRN2 binding domain containing 1)	SID134319296	0.83	0.72	0.87
CCDC63 (coiled-coil domain containing 63)	SID134320832	0.94	0.78	0.83
MLLT11 (MLLT11 transcription factor 7 cofactor)	SID152154376	0.88	0.77	0.88
FGFR4 (fibroblast growth factor receptor 4)	SID56478514	1.12	0.94	0.84
ROPN1B (rhophilin associated tail protein 1B)	SID152148433	0.94	0.88	0.94
MEIG1 (meiosis/spermiogenesis associated 1)	SID135625490	0.94	0.88	0.94
BCO2 (beta-carotene oxygenase 2)	SID152156346	0.85	0.94	1.1
SLC26A10P	SID135621386	1.07	0.92	0.86
PROM1 (prominin 1)	SID134315125	0.92	0.66	0.72
FKBP10 (FKBP prolyl isomerase 10)	SID134313237	1.21	0.41	0.34
KRTAP5-1 (keratin associated protein 5-1)	SID134329956	0.88	0.5	0.57
JAG1 (jagged canonical Notch ligand 1)	SID134315424	0.79	0.68	0.86
PDXDC1 (pyridoxal dependent decarboxylase domain containing 1)	SID134325415	0.94	0.77	0.82
EXOSC9 (exosome component 9)	SID135623873	1.04	0.58	0.56
IGFL1 (IGF like family member 1)	SID134326848	0.95	0.69	0.73
GHSR (growth hormone secretagogue receptor)	SID134310956	0.75	0.4	0.53
B4GALT1 (beta-1,4-galactosyltransferase 1)	SID134317208	1.08	0.8	0.74
SFPQ (splicing factor proline and glutamine rich)	SID135621199	0.96	0.24	0.25
PDGFRL (platelet derived growth factor receptor like)	SID134315029	1.15	1.08	0.94
SIM2 (SIM bHLH transcription factor 2)	SID135621603	0.98	0.88	0.9
FAXC	SID134318996	1.17	0.76	0.65
LCTL (lactase like)	SID152151534	0.86	0.84	0.98
RAPH1	SID152151338	1.06	0.74	0.7
HSF4 (heat shock transcription factor 4)	SID152152431	0.94	0.49	0.52
TIGD6 (tigger transposable element derived 6)	SID134317681	0.64	0.48	0.75
TIMM23B (translocase of inner mitochondrial membrane 23 homolog B)	SID134323886	1.54	0.4	0.26
CLTRN (collectrin, amino acid transport regulator)	SID152147014	1.18	0.66	0.56
ZMYND19 (zinc finger MYND-type containing 19)	SID135624198	1.12	1.17	1.04
FRMD6 (FERM domain containing 6)	SID135623143	0.78	0.42	0.54
COPS4 (COP9 signalosome subunit 4)	SID134324655	1.01	0.88	0.87
SNRPD3 (small nuclear ribonucleoprotein D3 polypeptide)	SID134322897	0.88	0.28	0.32
RCBTB2 (RCC1 and BTB domain containing protein 2)	SID135620785	0.57	0.5	0.88
TMEM65 (transmembrane protein 65)	SID152154767	1	0.82	0.82
ZNF746 (zinc finger protein 746)	SID134320960	0.79	0.6	0.76
MTMR4 (myotubularin related protein 4)	SID134312972	1.41	0.82	0.58
NCAM1 (neural cell adhesion molecule 1)	SID152154726	0.79	0.38	0.48
IL1RAP (interleukin 1 receptor accessory protein)	SID134309933	1.14	1.05	0.92
AHRR (aryl hydrocarbon receptor repressor)	SID152147263	1.07	0.88	0.82
SRD5A3 (steroid 5 alpha-reductase 3)	SID152153664	0.93	0.84	0.9
NUCKS1	SID152150801	1.09	0.88	0.81
TRIM41 (tripartite motif containing 41)	SID135621315	0.98	0.96	0.98
CXCL17 (C-X-C motif chemokine ligand 17)	SID134326823	0.81	0.52	0.64
SKIDA1 (SKI/DACH domain containing 1)	SID134329688	0.69	0.55	0.8
SPX (spexin hormone)	SID152154805	1.09	1.02	0.94

Next part (6 carried over from the part before).
gene	PubChem SID	CDH1-null / parental viability ratio	CDH1-null viability vs mock (fraction of mock)	parental viability vs mock (fraction of mock)
SRD5A3 (steroid 5 alpha-reductase 3)	SID152153664	0.93	0.84	0.9
NUCKS1	SID152150801	1.09	0.88	0.81
TRIM41 (tripartite motif containing 41)	SID135621315	0.98	0.96	0.98
CXCL17 (C-X-C motif chemokine ligand 17)	SID134326823	0.81	0.52	0.64
SKIDA1 (SKI/DACH domain containing 1)	SID134329688	0.69	0.55	0.8
SPX (spexin hormone)	SID152154805	1.09	1.02	0.94
GPR148 (G protein-coupled receptor 148)	SID152147909	0.64	0.51	0.8
IP6K3 (inositol hexakisphosphate kinase 3)	SID135621241	0.93	0.76	0.82
PPL (periplakin)	SID134321748	0.88	0.72	0.82
B3GAT2 (beta-1,3-glucuronyltransferase 2)	SID152152851	1.03	1.03	1
COPRS (coordinator of PRMT5 and differentiation stimulator)	SID134318008	1.1	0.88	0.8
ZNHIT1 (zinc finger HIT-type containing 1)	SID135621823	1.26	0.92	0.73
OR1G1 (olfactory receptor family 1 subfamily G member 1)	SID134313904	1.11	0.73	0.66
SLAIN1 (SLAIN family member 1)	SID152152098	0.9	0.94	1.04
IKZF4 (IKAROS family zinc finger 4)	SID152147934	1.14	0.58	0.51
MOXD1 (monooxygenase DBH like 1)	SID152149278	0.99	0.91	0.92
TUSC3 (tumor suppressor candidate 3)	SID134322848	0.98	0.98	1
TRIM64B (tripartite motif containing 64B)	SID152147731	0.7	0.5	0.71
DOCK9 (dedicator of cytokinesis 9)	SID134318227	0.98	0.8	0.82
MSH3 (mutS homolog 3)	SID152156026	1.07	0.94	0.88
CD5 (CD5 molecule)	SID134312786	0.71	0.55	0.77
POMT2 (protein O-mannosyltransferase 2)	SID152151509	0.79	0.7	0.89
GZF1 (GDNF inducible zinc finger protein 1)	SID134312176	1.05	0.84	0.8
AMDHD1 (amidohydrolase domain containing 1)	SID134320495	1.02	0.88	0.86
ANGEL1 (angel homolog 1)	SID135622658	1	0.24	0.24
TIE1	SID135620632	1.06	0.72	0.68
YTHDF1 (YTH N6-methyladenosine RNA binding protein F1)	SID135623451	0.92	0.78	0.85
CDH23 (cadherin related 23)	SID152147560	1.41	0.58	0.41
TMEM128 (transmembrane protein 128)	SID134319109	0.88	0.56	0.64
